PubChem BioAssay AID2551 (National Center for Advancing Translational Sciences (NCATS), 2010)
Several values for one entry are separate records, joined by “and”; a condition that tells them apart may be missing. Identical values can stand only once. The whole screen tested about 310,000 compounds, of which about 17,000 (5.5%) were called active. Inconclusive results, whose numbers are uncertain, are shown with a selection of clear calls. Calls follow the shape of the dose curve; as a rule, active = well fitted inhibition curve with a large enough effect; inconclusive = small, poorly fitted or top-dose-only effect, or effect the other way; inactive = no such curve, though single readings can be large or run the other way. Potencies beside an inconclusive call are fits to weak or partial responses and may not hold up. A structure can be active in one record and inactive in another.

Chains of the proteins cited; added tags and fusions are not shown. Lines headed by an entry give the natural chain unless they say otherwise; changes in a name come on top.
UniProt P51450: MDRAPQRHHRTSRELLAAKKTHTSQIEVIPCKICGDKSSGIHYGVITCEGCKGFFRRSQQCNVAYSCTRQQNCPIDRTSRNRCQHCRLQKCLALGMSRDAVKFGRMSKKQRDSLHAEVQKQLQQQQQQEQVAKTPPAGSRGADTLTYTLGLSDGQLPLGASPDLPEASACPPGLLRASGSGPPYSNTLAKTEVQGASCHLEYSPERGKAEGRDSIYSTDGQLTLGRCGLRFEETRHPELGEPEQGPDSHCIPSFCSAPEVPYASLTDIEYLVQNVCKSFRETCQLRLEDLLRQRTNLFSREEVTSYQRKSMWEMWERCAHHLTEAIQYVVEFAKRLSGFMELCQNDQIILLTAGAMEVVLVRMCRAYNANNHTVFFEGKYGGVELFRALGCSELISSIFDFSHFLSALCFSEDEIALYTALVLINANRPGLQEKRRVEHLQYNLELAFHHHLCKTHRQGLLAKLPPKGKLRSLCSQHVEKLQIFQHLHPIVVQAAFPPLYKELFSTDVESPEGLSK

Each compound was assayed against Nuclear receptor ROR-gamma (Mus musculus) (UniProt P51450) (assay: qHTS for inhibitors of ROR gamma transcriptional activity). Details: Drosophila S2 Gal4-RORgamma UAS-luciferase reporter, 20 h; activity change, negative = inhibition: at 53.6 µM (top of the series).
Method in brief: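 Using a luciferase readout, inhibitors were identified by reduced reporter activity in Drosophila cells coexpressing a copper-inducible Gal4–ROR gamma fusion and UAS-driven Photinus luciferase, incubated 20 hr after 700 uM copper sulfate.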
% is scaled to controls: 0 for no effect and ±100 for the full control effect; potency is read from the fitted curve at half-maximal effect.
Also: nearly all actives have a fitted effect of over 60% in size.

Row | Structure (SMILES) | Potency | activity change, negative = inhibition
1 | CCOC(=O)c1c(N)ssc1=S | inconclusive: 0.631 µM [activator, full curve, poor fit] | 
2 | COc1ccc(S(=O)(=O)NNC(=O)c2cc3cc4ccccc4nc3s2)cc1 | inconclusive: 17.8 µM [inhibitor, single point] | 
3 | COc1ccc([C@@H](C)NC(=O)c2ccc3oc(C(C)C)nc3c2)cc1 | inactive | 
4 | COCC(=O)Nc1cccc2ccccc12 | inconclusive: 4.47 µM [inhibitor, single point] | 
5 | Cc1ccc(S(=O)(=O)Nc2cc(Cl)c(O)cc2C)cc1 | inconclusive: 35.5 µM [activator, single point] | 
6 | COc1cccc(C(C)NC(=O)Nc2cccc(C(F)(F)F)c2)c1 (stereo not drawn) | inconclusive: 15.8 µM [inhibitor, single point] | 
7 | CCOc1ccc(-c2nc(-c3ccccc3)no2)cc1OCC | inconclusive: 0.447 µM [activator, full curve] | 
8 | FC(F)Oc1ccccc1C1CC(c2ccc(Br)s2)Nc2ncnn21 (stereo not drawn) | inconclusive: 7.94 µM [inhibitor, partial curve] | 
9 | O=C(NC(=S)Nc1nc(-c2ccc([N+](=O)[O-])cc2)cs1)c1ccco1 | active: 2.24 µM | 
10 | Cc1cc(Cl)ccc1NC(=S)NCc1ccco1 | inconclusive: 20 µM [inhibitor, partial curve, poor fit] | 
11 | CCN(CC)C(=S)NC(=O)c1cccnc1 | active: 2.51 µM | 
12 | Cn1c(=O)c(-c2ccc(F)cc2)nc2cnc(N3CCOCC3)nc21 | inactive | 
13 | CC(=O)c1ccc(Nc2cc(C)nc3c(C)cccc23)cc1 | inconclusive: 35.5 µM [inhibitor, single point] | 
14 | O=C(CN(CC1CCCO1)C(=O)CNS(=O)(=O)c1ccc(F)cc1)NCc1ccccc1 (stereo not drawn) | inactive | 
15 | COc1ccc(CCn2c(C(C)C)nc3oc4ccccc4c(=O)c3c2=O)cc1 | inactive | 
16 | Clc1ccc(OCc2nc(-c3ccccn3)no2)c(Br)c1 | inconclusive: 14.1 µM [inhibitor, single point] | 
17 | Cc1ccc(CNC(=O)CS(=O)(=O)c2ccccc2)cc1 | inactive | 
18 | COc1ccc(C(=O)NNC(=O)CN2CCC(n3nnc4cc(C(F)(F)F)ccc43)CC2)cc1 | inconclusive: 35.5 µM [activator, single point] | 
19 | CC1(C)OC(=O)C(=NNc2ccccc2)C(=O)O1 | inconclusive: 3.55 µM [activator, single point] | 
20 | CC1CCc2c(sc(Nc3nc4c(F)cccc4s3)c2C(N)=O)C1 (stereo not drawn) | active: 5.62 µM | 
21 | Cc1[nH]c2ccc(C(=O)N3CCN(c4ccccc4Cl)CC3)cc2c1C | inactive | 
22 | CC(C)[C@H](O)C1=CCCCC1=O | inactive | 
23 | c1ccc(COc2ccc(OCCCn3cncn3)cc2)cc1 | inconclusive: 1.26 µM [activator, partial curve, poor fit] | 
24 | Cc1ccc(-c2ccc(/C=N\NC(=O)C3C(=O)NCC3c3ccccc3)o2)cc1Cl (stereo not drawn) | inconclusive: 25.1 µM [inhibitor, single point] | 
25 | CCOC(=O)C1(C)NC(c2ccco2)C2C(=O)N(c3ccc(C)cc3)C(=O)C21 (stereo not drawn) | inconclusive: 5.62 µM [inhibitor, single point] | 

Row | Structure (SMILES) | Potency | activity change, negative = inhibition
26 | O=C(NN=C1CCCC1)c1cccc(Br)c1 | inconclusive: 35.5 µM [inhibitor, single point] | 
27 | NC(=O)c1ccccc1N/C=C/C(=O)c1ccco1 | inactive | 
28 | Cn1cc(C(=O)c2ccc(Cl)cc2Cl)cc1C(=O)N/N=C(\N)COc1cccc(C(F)(F)F)c1 | active: 2.24 µM | 
29 | CN1CCN(C(=O)c2cc3nc(-c4ccc(Cl)cc4)cc(C(F)(F)F)n3n2)CC1 | inconclusive: 6.31 µM [inhibitor, single point] | 
30 | Nc1nc(SCC(=O)Nc2ccc(Cl)c(S(=O)(=O)N3CCOCC3)c2)n[nH]1 | inactive | 
31 | Cc1cc(C)n(-c2nc(Nc3ccccc3C(F)(F)F)nc(-n3nc(C)cc3C)n2)n1 | active: 7.08 µM | 
32 | COc1cc(C(=O)OCC(=O)NCCCc2ccccc2)ccc1OCC(C)C | inconclusive: 35.5 µM [inhibitor, single point] | 
33 | C=CCn1c(O)c(N=NC(=S)Nc2ccc(OC)c(Cl)c2)c2ccccc21 | active: 2.82 µM | 
34 | CC(C)Oc1ccc(C(CC(=O)N2CCOCC2)C(C)C)cc1 (stereo not drawn) | inactive | 
35 | CCOC(=O)/C(=C/Nc1ccc(F)c(F)c1)[N+](=O)[O-] | inactive | 
36 | O=C(N/N=C\c1cccs1)c1sccc1-n1cccc1 | active: 1.26 µM | 
37 | COc1cc(/C=C(/C#N)C(=O)NCCc2c[nH]c3ccccc23)ccc1OCc1ccccc1F | inactive | 
38 | CCCNC(=O)c1cc2c(C(F)(F)F)nn(C)c2s1 | inactive | 
39 | O=C(NN=C1c2ccccc2-c2ccccc21)c1ccccc1Br | active: 7.08 µM | 
40 | COC(=O)c1sc2[nH]c(=S)n(N)c(=O)c2c1C | active: 7.08 µM | 
41 | COc1ccc(NC(=S)NCCN2CCC(C)CC2)cc1Cl | inconclusive: 17.8 µM [inhibitor, single point] | 
42 | COC(=O)C(Cc1ccccc1)NC(=O)CC(C)CC(=O)Nc1ccc(C)cc1 (stereo not drawn) | inconclusive: 31.6 µM [activator, single point] | 
43 | Cc1ccc(N(CC(=O)NCCc2ccc(Cl)cc2)S(=O)(=O)c2c(C)noc2C)cc1 | inconclusive: 35.5 µM [activator, single point] | 
44 | CCNc1c(NS(=O)(=O)c2ccc(C3CCCCC3)cc2)c(=O)oc2ccccc12 | inconclusive: 17.8 µM [activator, single point] | 
45 | Cc1ccc(S(=O)(=O)Oc2cccc(/C=N/Nc3ccc(C(=O)O)cc3)c2)cc1 | inactive | 
46 | Cc1ccc(Cl)cc1NS(=O)(=O)c1c(C)[nH]c(=O)[nH]c1=O | inconclusive: 35.5 µM [activator, single point] | 
47 | CC(C)OC(=O)C(C)(C)Oc1ccc(C(=O)c2ccc(Cl)cc2)cc1 | inconclusive: 35.5 µM [activator, single point] and inconclusive: 11.2 µM [activator, partial curve] | 
48 | Cc1cccc(CNc2nc(-c3ccc4c(c3)OCO4)nc3ccccc23)c1 | inconclusive: 35.5 µM [inhibitor, single point] | 
49 | COc1c(O)cc2oc(-c3ccc(O)c(O)c3)cc(=O)c2c1O | inactive and active: 12.6 µM | 
50 | COc1ccc(/C=N/n2c(N)nc3ccccc32)cc1OC | active: 12.6 µM | 

Row | Structure (SMILES) | Potency | activity change, negative = inhibition
51 | CCCCCCCCCCOC(=O)Cn1c(COc2ccccc2)[n+](C)c2ccccc21 | inconclusive: 10 µM [inhibitor, single point] | 
52 | O=C(Nc1ccc(S(=O)(=O)Nc2ncccn2)cc1)c1ccc(S(=O)(=O)N2CCCC2)cc1 | active: 12.6 µM | 
53 | Cc1ccc(-n2nc3c(=O)n(CC(=O)c4ccc(F)cc4)nc(C)c3c2C)cc1 | inconclusive: 10 µM [activator, partial curve, poor fit] | 
54 | O=C1CCCN1CC(O)CS(=O)(=O)Cc1ccc(Cl)c(Cl)c1 (stereo not drawn) | inactive | 
55 | O=[N+]([O-])c1cccc(CN2CCC(Cc3ccccc3)CC2)c1 | inconclusive: 35.5 µM [inhibitor, single point] | 
56 | CC(C)NC(=O)c1ccc(-c2ccccc2C(F)(F)F)o1 | inactive | 
57 | COc1ccc(Nc2ccc3c(c2)=NC2(CCCCC2)[N+]=3[O-])cc1 | active: 11.2 µM | 
58 | CO[C@]1(NC(=O)C2SC(=C(C(N)=O)C(=O)O)S2)C(=O)N2C(C(=O)O)=C(CSc3nnnn3C)CS[C@H]21 (stereo partly drawn) |  | inactive: 11% [at 2.98 µM]
59 | CSc1ccc(C#N)cc1NC(=O)c1ccccc1C | inactive | 
60 | CC1=NN(c2ccccc2)C(=O)/C1=C\C=C1/N(C)c2ccccc2C1(C)C | inconclusive: 11.2 µM [activator, partial curve] | 
61 | Cc1ncc(CO)c2c1Oc1nc(-c3ccccc3F)nc(SCC(=O)N(C)c3ccccc3)c1C2 | inconclusive: 35.5 µM [inhibitor, single point] | 
62 | O=C(O)COn1c(-c2ccccc2)nc2ccc(Cl)cc21 | inconclusive: 14.1 µM [inhibitor, single point] | 
63 | COc1cccc(-c2cc(C(F)(F)F)nc(-n3cncn3)n2)c1 | inconclusive: 0.282 µM [activator, full curve, poor fit] | 
64 | CCC(C)(C)n1nnnc1CN1CCC(NC(=O)c2ccccc2C)CC1 | inconclusive: 6.31 µM [inhibitor, single point] | 
65 | COc1cc2c(cc1NC(=O)C(C)Sc1ccc(NC(C)=O)cc1)oc1ccccc12 (stereo not drawn) | inconclusive: 10 µM [activator, partial curve] | 
66 | CNC(=O)CC1C(=O)N(c2ccc(Cl)cc2)C(=S)N1NC(=O)c1cccc(F)c1 (stereo not drawn) | inconclusive: 11.2 µM [inhibitor, single point] | 
67 | NC(=O)c1nsc(C(=O)N(CC(=O)NCc2ccccc2)c2ccc(F)cc2)c1N | inconclusive: 15.8 µM [activator, single point] | 
68 | Cc1ccc(CN(C(=O)c2ccc(Cl)c([N+](=O)[O-])c2)C2CCS(=O)(=O)C2)o1 (stereo not drawn) | inactive | 
69 | O=C(NCCc1ccccc1)c1ccc(CS(=O)Cc2ccc(Cl)cc2)o1 (stereo not drawn) | inactive | 
70 | O=C(COC(=O)c1cccnc1Cl)Nc1nc(-c2ccccc2)cs1 | inconclusive: 11.2 µM [activator, partial curve] | 
71 | Fc1ccc(Oc2nc(-c3ccccc3)nnc2C(F)(F)F)cc1 | inactive | 
72 | Cc1nnc(SCc2ccccc2)nc1/C=C/NOCc1ccc(Cl)cc1Cl | inconclusive: 31.6 µM [activator, single point] | 
73 | COc1ccc(OC)c(Nc2cc(C)c3ccccc3n2)c1 | inactive | 
